From publication doi:10.1101/260919

Biological target: T1, FLAG-tagged full-length NLRP1 (human) (UniProt Q9C000)
T1 sequence: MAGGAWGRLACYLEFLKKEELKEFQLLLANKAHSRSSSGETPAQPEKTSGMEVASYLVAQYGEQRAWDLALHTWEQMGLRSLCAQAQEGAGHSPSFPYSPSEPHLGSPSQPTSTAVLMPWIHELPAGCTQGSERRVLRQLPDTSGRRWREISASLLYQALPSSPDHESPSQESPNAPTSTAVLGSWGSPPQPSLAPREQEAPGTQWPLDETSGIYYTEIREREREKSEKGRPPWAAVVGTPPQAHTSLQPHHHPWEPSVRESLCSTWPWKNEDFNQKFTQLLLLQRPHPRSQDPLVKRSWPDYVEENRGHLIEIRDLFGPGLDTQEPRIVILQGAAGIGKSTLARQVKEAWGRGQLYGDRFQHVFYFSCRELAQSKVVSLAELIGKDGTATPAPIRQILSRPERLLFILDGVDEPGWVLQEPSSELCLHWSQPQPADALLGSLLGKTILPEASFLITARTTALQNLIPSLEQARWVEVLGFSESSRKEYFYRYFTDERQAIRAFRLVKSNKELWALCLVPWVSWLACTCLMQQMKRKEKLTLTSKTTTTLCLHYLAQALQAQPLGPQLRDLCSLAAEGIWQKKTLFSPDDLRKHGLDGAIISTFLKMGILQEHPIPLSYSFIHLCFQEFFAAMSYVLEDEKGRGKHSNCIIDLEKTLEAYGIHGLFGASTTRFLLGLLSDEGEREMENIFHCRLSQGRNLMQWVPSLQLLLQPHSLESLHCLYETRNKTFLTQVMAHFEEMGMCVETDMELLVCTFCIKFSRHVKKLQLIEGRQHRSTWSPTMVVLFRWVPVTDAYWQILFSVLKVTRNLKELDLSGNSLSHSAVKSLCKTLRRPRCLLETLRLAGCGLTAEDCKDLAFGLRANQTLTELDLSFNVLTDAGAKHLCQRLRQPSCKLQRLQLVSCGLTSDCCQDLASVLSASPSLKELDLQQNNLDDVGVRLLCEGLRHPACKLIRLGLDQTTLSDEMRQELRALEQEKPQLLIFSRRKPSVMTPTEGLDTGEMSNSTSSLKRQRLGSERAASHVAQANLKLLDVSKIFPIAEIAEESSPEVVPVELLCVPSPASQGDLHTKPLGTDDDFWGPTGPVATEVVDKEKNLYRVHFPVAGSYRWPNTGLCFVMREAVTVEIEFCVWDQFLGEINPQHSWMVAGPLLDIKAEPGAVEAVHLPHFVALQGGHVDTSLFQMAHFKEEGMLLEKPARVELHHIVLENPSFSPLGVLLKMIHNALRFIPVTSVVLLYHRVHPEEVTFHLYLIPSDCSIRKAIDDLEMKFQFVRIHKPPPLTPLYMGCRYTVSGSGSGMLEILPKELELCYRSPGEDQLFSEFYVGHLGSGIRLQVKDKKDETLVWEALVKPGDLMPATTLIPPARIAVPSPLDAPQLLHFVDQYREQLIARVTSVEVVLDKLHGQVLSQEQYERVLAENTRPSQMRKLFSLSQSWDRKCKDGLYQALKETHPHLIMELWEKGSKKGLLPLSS
Experiment: co-IP

DPP9L lacking the hydrolase domain (human) (domain or fragment)
binding: no binding

No constants are given. Whether binding was seen depends on the method and setting. Binding seen in cells or lysates may run through a third protein. Sequences can lack the tags named with a protein.
